2 molecules from patent publication US20200264197A1 can be followed below.

Amino acid sequences for entries named in this document (tags omitted). Residues count along the entry.
UniProt P05067, residues 672-713: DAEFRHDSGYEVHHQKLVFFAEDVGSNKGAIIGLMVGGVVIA

These are yes or no findings as the source states them, for the method shown. Some entries that bind do so weakly or less than the wild type.

Experiment [1] deals with Aβ aggregates (amyloid plaques) in brain slices of 5×FAD mice (human) (UniProt P05067). The experiment is described as follows: immunohistochemistry on 5×FAD mouse brain slices.
For experiment [2] the target is unchanged. The experiment in a line: immunohistochemistry on brain slices of 12 month old 5×FAD mice.

B1: monoclonal antibody K119 (antibody, mouse IgG2a, kappa, V domains shown)
VH: EVKLVESGGGLVQPGGSLRLSCATSGFTFTDYYMSWVRQPPGKALEWLGFIRNKANGYTTEYSASVKGRFTISRDNSQSILYLQMNTLRTEDSATYYCTRDIPTIMDYWGQGTSVTVSS
VL: DIVMSQSPSSLAVSAGEKATMSCKSSQSLFNSRTRKNYVAWLQQKPGQSPKLLISWASTRESGVPDRFTGSGSGTDFALTITNVQAEDLAVYYCKQSYNLRAFGGGTKLEITR
For B1, the binding entry in experiment [1] and in experiment [2] was “binds” throughout.

B2: monoclonal antibody K11 (antibody, mouse IgG1, kappa, V domains shown)
VH: QVQLKESGPGLVAPSQSLSITCTVSGFSLTSYGVHWVRQPPGKGLEWLGALWASGNTDYSSTLMSRLSISKDNSKSQVFLKMNSLQTDDTAMYYCARDRGILTGGYFDVWGAGTTVTVSS
VL: DIVMSQSPTSLAVSAGEKVTMSCKSSQSLLNSRNRKNYLAWYQQKPGQSPKLLIYWASTRDSGVPDRFTGSGSGTDFTLTISSVQAEDLAVYYCKQSYNLRTFGGGTKLEIKR
On to B2, for which the binding result in experiment [1] is reported as “binds”.
